Patent publication US20170202936A1, “Identification, Optimization And Use Of Cryptic HLA-B7 Epitopes For Immunotherapy” (VAXON BIOTECH, priority 2006, published 2017)
Part of at least one peptide drawing is inferred or uncertain, most often the ends. No end group written: not given here.

Test system: T2-B7 targets
Assay: Generation of CTL from human PBMC of healthy donors, cytotoxicity against peptide-loaded T2-B7 targets
Format: cell-based
Conditions: three donors tested, four stimulations with peptide-loaded autologous dendritic cells
Procedure: Generation of CTL from human PBMC. PBMC were collected by leukapheresis from healthy HLA-B*0702 volunteers. Dendritic cells (DC) were produced from adherent cells cultured for seven days (2×10^6 cells/ml) in the presence of 500 IU/ml GM-CSF and 500 IU/ml IL-4 (R&D Systems, Minneapolis, Minn.) in complete medium (RPMI-1640 supplemented with 10% heat inactivated human AB serum, […] L-Glutamine and antibiotics). On day seven, DC were pulsed with 10 μM peptides for 2 hrs; maturation agents Poly I:C (Sigma, Oakville, Canada) at 100 ng/ml and anti-CD40 mAb (clone G28-5, ATCC, Manassas, Va.) at 2 μg/ml were added in the culture and DCs were incubated at 37° C. overnight or up to 48 hours. Mature DC were then irradiated (3500 rads). CD8+ cells were purified by positive selection with CD8 MicroBeads (Miltenyi Biotec, Auburn, Calif.) according to the manufacturer's instructions. 2×10^5 CD8^+ cells+6×10^4 CD8^− cells were stimulated with 2×10^4 peptide pulsed DC in complete culture medium supplemented with 1000 IU/ml IL-6 and 5 IU/ml IL-12 (R&D Systems, Minneapolis, Minn.) in round-bottomed 96 well plates. […]
Cytotoxic assay. […] Percentage of specific lysis was determined as: % Lysis=(Experimental Release−Spontaneous Release)/(Maximal Release−Spontaneous Release)×100.

## APRCRAVRSL [TERT4]
  Induction of CTL in healthy donors: CTL were induced in two of them
